Among all 210,000 compounds or so, about 5,900 (2.8%) were called active. Another 5% or so got no clear call; they are omitted. The call rests on the fitted dose curve; in most records, active means well fitted activation curve with a large enough effect; inconclusive means small, poorly fitted or top-dose-only effect; inactive means no such curve, though single readings can be large or run the other way. Only a part is listed here, and it is no random draw. Entries without a call were filed so in the source.
Assay: qHTS Assay for Enhancers of SMN2 Splice Variant Expression; further: nearly all actives have a fitted effect of over 55% in size; on activity change, positive = activation: % of control where 0% means no effect
Conditions: HEK293 SMN2-luciferase splicing reporter, luminescence, 30-36 h; activity change, positive = activation: at 46.1 µM (top of the series) unless noted
In short: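 qHTS luciferase splicing reporter: luminescence rises when SMN2 exon 7 is included in transfected HEK293 cells. Compound exposure lasted 30-36 h at 37C, with 4.5 mM final sodium butyrate as control, followed by a ONE-Glo read.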
Potency means the concentration at half of the fitted maximal effect.

Row | SMILES | activity change, positive = activation | Potency
1 | Cc1ccc2nc(SCC(=O)O)nc(C)c2c1 | 47.7% | 
2 | CCOC(=O)CSc1nc2c([nH]c3ccccc32)c(=O)n1C | 36.1% | 
3 | CCOC(=O)Cc1nnc(NC(=O)c2ncn[nH]2)s1 | 24.2% | 
4 | COc1ccc(N2CCN(C(=O)c3ccc(NS(=O)(=O)c4cccs4)cc3)CC2)cc1 | -58.5% | 
5 | CC1=C(C(=O)OCCNC(=O)c2ccccc2O)C(c2ccccc2[N+](=O)[O-])C(C(=O)OCC2CCCO2)=C(C)N1 (stereo not given) | -38.2% | 
6 | CC(C)(C)OC(=O)N/N=C/c1c[nH]c2ccccc12 | 45.3% | 
7 | Cc1cc(C)c(NC(=O)Cn2cnc3c(oc4ccccc43)c2=O)c(C)c1 | -14% | 
8 | CC(/C=N/NC(=O)c1cccs1)=C\c1ccco1 |  | active: 11.2 µM
9 | O=P(COCCCCCOCP(=O)(c1ccccc1)c1ccccc1)(c1ccccc1)c1ccccc1 | inactive: -58.9% | 
10 | COc1ccc([N+](=O)[O-])cc1NC(=O)Nc1ccccc1 | -46.5% | 
11 | O=C(NC1=NCCS1)Nc1ccccc1 |  | active: 10 µM
12 | CCOc1ccc(OCCSc2nnnn2-c2ccccc2)cc1 | -51% | 
13 | CCN(C(=O)c1cc(Cl)ccc1OC)c1ccccc1C | -33.9% | 
14 | Cc1nc2ccc(NC(=O)N(C)c3ccccc3)cc2s1 |  | active: 22.4 µM
15 | S=C(Nc1ccc(Cl)cc1)NC1CC2CCCC(C1)N2C1CC1 (stereo not given) | inactive: -55% | 
16 | COc1ccc(-c2csc(Cc3nc(O)cs3)n2)cc1 |  | active: 11.2 µM
17 | O=C(c1ccccc1)C(CCC(CN1CCOCC1)C(=O)c1ccccc1)CN1CCOCC1 (stereo not given) | -97.7% | 
18 | C=CCn1c(SCc2c(C)noc2C)nc2sc3c(c2c1=O)CCCCC3 | -48.6% | 
19 | O=C(OCc1cnc(Cl)s1)c1cccc(Cl)c1 | 13% | 
20 | CCn1cc(C(=O)N2CCN(c3ccccc3F)CC2)c(=O)c2cc(S(=O)(=O)N(C)C)ccc21 | 34.6% | 
21 | Cc1nc2c(-c3ccccc3)c[nH]n2c(=O)c1Cc1ccccc1 | inactive: -60% | 
22 | O=C(O)c1c2c(nc3ccccc13)/C(=C/c1ccc(O)cc1)CC2 | inactive: -53.1% | 

Row | SMILES | activity change, positive = activation | Potency
23 | S=c1[nH]c(-c2ccccc2)cn1/N=C/c1ccc(Br)cc1 | 36.7% | 
24 | CCc1cc(C(=O)Nc2cnn(Cc3ccccc3C)c2)no1 |  | active: 17.8 µM
25 | COc1ccc(C2Nc3ccccc3C(=O)N2c2ccc(C)cc2)cc1Cn1cc([N+](=O)[O-])cn1 (stereo not given) |  | active: 20 µM
26 | COc1ccc(NC(=O)CN2c3cccc4cccc(c34)S2(=O)=O)c(OC)c1 | -22.2% | 
27 | COc1ccccc1/C=C/C(=O)OCC(=O)NCc1ccco1 | 47% | 
28 | COC(=O)C1CC(=O)c2ccsc2C1 (stereo not given) | 6.84% | 
29 | O=C(CCn1cccc1)Nc1ccc(OC(F)(F)F)cc1 | -41.8% | 
30 | COc1ccccc1N1CCN(C(=O)N2CCOCC2)CC1 | 44.2% | 
31 | Cc1cc(C)c(S(=O)(=O)Nc2ccc3c(c2)CCC3)c(C)c1 | -50.2% | 
32 | CN(C)/C=C/C(=O)/C=C/c1ccc(Cl)cc1Cl |  | active: 20 µM
33 | CCC(=O)Nc1cc(C(=O)OCC(=O)c2ccccc2)ccc1C | 84.7% | 
34 | Cc1cc(C)n2nc(CCCO)nc2n1 | 34.3% | 
35 | CC1CC/C(=C\c2ccc3c(c2)OCO3)C(=O)/C1=C/c1ccc2c(c1)OCO2 (stereo not given) | inactive: -86.1% | 
36 | O=C(NCCc1csc(-c2ccccc2)n1)c1c(F)cccc1F | inactive: -66.3% | 
37 | N#CCC(=O)c1sccc1-n1cccc1 | 30.1% | 
38 | c1ccc(-c2noc(-c3cccc4ccccc34)n2)cc1 |  | active: 11.2 µM
39 | CN1CCN(C(=S)c2ccc(-c3cccc(Cl)c3Cl)o2)CC1 | 66.1% | 
40 | CCOC(=O)C1CCCN(Cc2cc(Br)ccc2OC)C1 (stereo not given) | 49.2% | 
41 | C=C(C)CNC(=O)CCc1nnc(Cc2cccc(C(F)(F)F)c2)o1 |  | active: 11.2 µM
42 | C=CCn1c(CNC(=O)c2cccs2)nnc1SCc1ccc(Cl)cc1Cl | -30.3% | 
43 | FC(F)(F)c1cc(-c2ccccc2)nc(N2CCCCC2)n1 | 32.4% | 
44 | CN1/C(=C/C=N/NC(=O)c2ccc([N+](=O)[O-])cc2)C(C)(C)c2ccccc21 | -74.1% | 

Some of the entries so far, with tabs.
Row	SMILES	activity change, positive = activation	Potency
32	CN(C)/C=C/C(=O)/C=C/c1ccc(Cl)cc1Cl		active: 20 µM
33	CCC(=O)Nc1cc(C(=O)OCC(=O)c2ccccc2)ccc1C	84.7%	
34	Cc1cc(C)n2nc(CCCO)nc2n1	34.3%	
35	CC1CC/C(=C\c2ccc3c(c2)OCO3)C(=O)/C1=C/c1ccc2c(c1)OCO2 (stereo not given)	inactive: -86.1%	
36	O=C(NCCc1csc(-c2ccccc2)n1)c1c(F)cccc1F	inactive: -66.3%	

2 of the compounds above, as tab-separated lines:
Row	SMILES	activity change, positive = activation	Potency
24	CCc1cc(C(=O)Nc2cnn(Cc3ccccc3C)c2)no1		active: 17.8 µM
37	N#CCC(=O)c1sccc1-n1cccc1	30.1%	

Carrying on.

Row | SMILES | activity change, positive = activation | Potency
45 | Cc1cc(C)cc(NS(=O)(=O)c2ccc3c(c2)c(=O)n(C)c(=O)n3C)c1 | -62.5% | 
46 | O=[N+]([O-])c1ccc(-c2nc3ccc([N+](=O)[O-])cc3[nH]2)cc1 | -58.3% | 
47 | Cc1nccc2[nH]c(=O)c(C(=O)NC3CCCCC3C)cc12 (stereo not given) |  | active: 12.6 µM
48 | O=C(NCc1ccccn1)c1cccc(NS(=O)(=O)c2cccc(Cl)c2)c1 | inactive: 12.6% | 
49 | CC(=O)CCC(=O)NCCc1ccccc1F | 37.4% | 
50 | CCn1c(=O)n(CC)c2cc(S(=O)(=O)Nc3cc(C)cc(C)c3C#N)ccc21 | 25.2% | 
51 | CCC(/C=C1\Sc2ccc(OC)cc2N1CC)=C\c1sc2ccc(OC)cc2[n+]1CCCS(=O)(=O)[O-] | -107% | 
52 | CN(C)C=Nc1ncc2c3ccccc3n(CCN(C)C)c2c1C#N | inactive: -51.4% | 
53 | c1ccc(-c2cn3nc(-c4ccccc4)cnc3n2)cc1 |  | active: 2 µM
54 | Fc1ccc(-c2noc(C3CCN(Cc4cccnc4)CC3)n2)cc1 | -33.4% | 
55 | CCOc1ccc(C(=S)N2CCCC2)cc1 | 22.8% | 
56 | CCOC(=O)C1=C(C)OC(N)=C(C(=O)OCC)C1c1cccnc1 (stereo not given) | 39.1% | 
57 | COc1ccc(OC)c(S(=O)(=O)Nc2cccc(C(C)=O)c2)c1 | 30% | 
58 | Cc1cccn2cc(COc3ccc(-c4ccccc4)cc3)nc12 | 363% | 
59 | O=S(=O)(/N=C(/Nc1cc(N2CCOCC2)ncn1)c1ccccc1)c1ccccc1 | 32.1% | 
60 | COc1ccc(-c2noc(CSc3nc4ccccc4[nH]3)n2)cc1OC | inactive: -50.8% | 
61 | Cc1ccc(C)c(NC(=O)CCn2nc(C)cc2C)c1 | 45.1% | 
62 | CC1=N/C(=C/c2cccnc2)C(=O)O1 | inactive: -18.4% | 
63 | Cc1ccc(C(=O)N/N=C(/CC(=O)c2cccs2)C(F)(F)F)cc1 | -32.8% | 
64 | CCCCCOC(=O)C1=C(C)Nc2ncnn2C1c1cccs1 (stereo not given) | -66.9% | 
65 | CCC(=O)N1c2ccccc2NC2=C(C(=O)CCC2)C1c1ccco1 (stereo not given) | -44.3% | 
66 | CCNc1ccc(S(=O)(=O)N(C)C)cc1NCC(=O)Nc1ccc(F)c(Cl)c1 | -66.4% | 

Row | SMILES | activity change, positive = activation | Potency
67 | COc1ccc(-c2cc(C(=O)Nc3ccccc3N3CCOCC3)c3ccccc3n2)cc1OC | inactive: -58.3% | 
68 | COc1ccc2c(=O)c(-c3ccccc3)coc2c1 |  | active: 11.2 µM
69 | CNC(=O)COc1ccc(C=O)cc1OC | inactive: -35.4% | 
70 | Cc1c(NC(=O)COC(=O)C2(c3ccc(F)cc3)CCCC2)c(=O)n(-c2ccccc2)n1C | inactive: -40.7% | 
71 | CC(=O)Nc1ccc(SCC(=O)c2cc(C)n(-c3ccccc3F)c2C)cc1 | inactive: -70.4% | 
72 | O=C(c1ccccc1)c1c[nH]c2cc3c(cc2c1=O)OCCO3 |  | active: 22.4 µM
73 | COc1ccc(C(C(=O)NC2CCCCC2)N(C(=O)c2sc(C)nc2C)c2ccccc2C)cc1 (stereo not given) | -54.6% | 
74 | Cc1nc2c(c(=O)n1Cc1ccco1)c1nc3ccccc3nc1n2Cc1ccccc1 | 40.6% | 
75 | CCCCOc1cccc(C(=O)NC(=S)Nc2cccc(NC(=O)c3ccccc3Cl)c2)c1 | -46.9% | 
76 | Cc1ccc(NC(=O)c2ccc(CSc3nnnn3C)cc2)cc1 |  | active: 8.91 µM
77 | CCCCN(CC)CCNC(=O)c1cc2c(=O)n(C)c3ccccc3c2n1C | 31.1% | 
78 | CCn1c(SCC(=O)Nc2nc(-c3ccccc3)cs2)nnc1-c1ccccc1O | inactive: -42.5% | 
79 | Cc1csc(NC(=O)c2cc([N+](=O)[O-])cc([N+](=O)[O-])c2)n1 | inactive: -67.5% | 
80 | O=C(CSCc1ccccc1)N1CCN(c2ccccc2)CC1 |  | active: 12.6 µM
81 | O=C(Nc1cccc(Br)c1)c1ccc(OC2CSC2)cc1 | inactive: 73.8% | 
82 | CC(C)COc1ccc(C(=O)OCCN2CCOCC2)cc1 | -35.7% | 
83 | O=C(N/C(=N\O)c1ccccc1)Nc1ccc(Cl)cc1 | 41% | 
84 | COc1ccc(C2NN=C(c3ccc(C)cc3)S2)cc1OC (stereo not given) |  | active: 11.2 µM
85 | COc1ccc(-n2ncc3c(N4CCN(Cc5ccccc5)CC4)ncnc32)cc1 | -51.2% | 
86 | Cc1ccc(-c2nc3sc4c(c3c(=O)n2N)CCCC4)cc1 |  | active: 11.2 µM
87 | Cc1ccc(NC(=O)c2ccc(CN3CCc4ccccc4C3)cc2)cc1 | inactive: -88.4% | 
88 | Cn1c(=O)c2c(nc(NCCO)n2C)n(C)c1=O | 33.9% | 

Row | SMILES | activity change, positive = activation | Potency
89 | Cc1ccc(C(=O)Nc2nnc(-c3ccco3)o2)cc1 |  | active: 12.6 µM
90 | COc1ccccc1CNC(=O)CNC(=O)Cn1cnc2ccccc2c1=O | 39.4% | 
91 | Cc1cc(C(=O)Cn2nc(C(=O)O)c3ccccc3c2=O)c(C)n1-c1ccc(OC(F)F)cc1 | inactive: -51.5% | 
92 | COc1ccc(N2CCN(C(=O)CSc3ccccc3N)CC2)cc1 | 29.2% | 
93 | C/C(=N\NC(=O)c1ccccc1O)c1cccs1 |  | active: 3.55 µM
94 | NC(=O)C1(N2CCCCC2)CCN(C(=O)CSc2nc3ccccc3s2)CC1 | 33.5% | 
95 | CCCCCCCn1ccc(=N)cc1 | inactive: -90% | 
96 | O=C(Nc1cccnc1)c1ccc(S(=O)(=O)c2ccc(Cl)cc2)cc1 | inactive: -79.7% | 
97 | O=S(=O)(c1ccc2ccccc2c1)N1CCC(c2nc(-c3ccncc3)no2)CC1 | inactive: -78.2% | 
98 | COc1ccc(OC)c(NC(=O)CSc2nnnn2-c2ccc3c(c2)OCO3)c1 |  | active: 35.5 µM
99 | CC(=O)c1cc(NC(=O)c2ccc(C)cc2)c(=O)oc1C | 77.9% | 
100 | CCOc1ccccc1NC(=O)C1C2C=CC(O2)C1C(=O)O (stereo not given) | 27.8% | 
101 | COc1ccc(S(=O)(=O)N(CC(=O)NC2CC2)C2CCCCC2)cc1Cl | 39.8% | 
102 | C(=N\Nc1ccccn1)/c1ccc2c(c1)OCCO2 |  | active: 2.51 µM
103 | CCOC(=O)c1c(C)nc(-c2ccccc2)nc1N | 336% | 
104 | COc1cccc(C(=O)NCCC2=CCCCC2)c1OC |  | active: 12.6 µM
105 | COc1ccc2c(c1OC)C(=O)OC2Nc1ncc(Br)cc1Br (stereo not given) | 36.5% | 
106 | O=C(O)c1cc([N+](=O)[O-])ccc1N1CCCCC1 | inactive: -1.11% | 
107 | COc1ccc(Nc2nc(NCC3CCCO3)c3ccccc3n2)c(OC)c1 (stereo not given) | inactive: -43.8% | 
108 | O=C(/C=C/c1ccc2c(c1)OCO2)N1CCOCC1 | 24.4% | 
109 | O=S1(=O)C=C(Sc2nc3ccccc3s2)c2ccccc21 | inactive: -108% | 
110 | CC(C)NS(=O)(=O)c1ccc(OCC(N)=O)c(Cl)c1 | 39.1% | 

— PubChem BioAssay AID1458 (National Center for Advancing Translational Sciences (NCATS), 2008)
